Assay results published in ChEMBL document CHEMBL1151628, “Antibacterial constituents of the diatom Navicula delognei” (1984).

System: Escherichia coli
Assay: Antimicrobial activity against Escherichia coli ATCC 25922 at 0.1 mg/disk by disk diffusion assay
Type: functional

Q: With `CC1(C)S[C@@H]2[C@H](NC(=O)[C@H](N)c3ccccc3)C(=O)N2[C@H]1C(=O)O` [AMPICILLIN] as the compound, how does the “inhibition zone (IZ)” value read?
A: Its value is greater than 4 mm.
